These are yes or no findings as the source states them, for the method shown. Some binding calls cover weakened binding; strength is not graded here.
B1: SMS 90-366, catalytic domain of spermine synthase (two-hybrid prey, clone 123) (domain or fragment, UniProt P52788 90-366)
chain: LNKVEERMKELSQDSTGRVKRLPPIVRGGAIDRYWPTADGRLVEYDIDEVVYDEDSPYQNIKILHSKQFGNILILSGDVNLAESDLAYTRAIMGSGKEDYTGKDVLILGGGDGGILCEIVKLKPKMVTMVEIDQMVIDGCKKYMRKTCGDVLDNLKGDCYQVLIEDCIPVLKRYAKEGREFDYVINDLTAVPISTSPEEDSTWEFLRLILDLSMKVLKQDGKYFTQGNCVNLTEALSLYEEQLGRLYCPVEFSKEIVCVPSYLELWVFYTVWKKAKP
B2: CSDE1 692-798, holds the SUZ-C domain of cold shock domain-containing protein E1 (two-hybrid prey, clone 186) (domain or fragment, UniProt O75534-1 692-798)
chain: VGDSKKLFFHVKEVQDGIELQAGDEVEFSVILNQRTGKCSACNVWRVCEGPKAVAAPRPDRLVNRLKNITLDDASAPRLMVLRQPRGPDNSMGFGAERKIRQAGVID
B3: TC2N 277-490, holds the second C2 domain of tandem C2 domains nuclear protein (two-hybrid prey, clone 142) (domain or fragment, UniProt Q8N9U0-1 277-490)
chain: KSSAKEGSNAIEFMETFVFAIKLQNLQTVRLVFKIQTQTPRKKTIGECSMSLRTLSTQEMDYSLDITPPSKISVCHAELELGTCFQAVNSRIQLQILEARYLPSSSTPLTLSFFVKVGMFSSGELIYKKKTRLLKASNGRVKWGETMIFPLIQSEKEIVFLIKLYSRSSVRRKHFVGQIWISEDSNNIEAVNQWKETVINPEKVVIRWHKLNPS

Sequences of proteins named here, by UniProt entry; tags and fusion partners are left off. A change or cut given only in a name is not applied to a line headed by its entry. A line that says so, or that is headed by a name, gives the form on record, which may keep a tag or linker.
MyoVa-GTD-S1651E/S1652E (globular tail domain of myosin Va, phosphomimetic) (Q9Y4I1, form named): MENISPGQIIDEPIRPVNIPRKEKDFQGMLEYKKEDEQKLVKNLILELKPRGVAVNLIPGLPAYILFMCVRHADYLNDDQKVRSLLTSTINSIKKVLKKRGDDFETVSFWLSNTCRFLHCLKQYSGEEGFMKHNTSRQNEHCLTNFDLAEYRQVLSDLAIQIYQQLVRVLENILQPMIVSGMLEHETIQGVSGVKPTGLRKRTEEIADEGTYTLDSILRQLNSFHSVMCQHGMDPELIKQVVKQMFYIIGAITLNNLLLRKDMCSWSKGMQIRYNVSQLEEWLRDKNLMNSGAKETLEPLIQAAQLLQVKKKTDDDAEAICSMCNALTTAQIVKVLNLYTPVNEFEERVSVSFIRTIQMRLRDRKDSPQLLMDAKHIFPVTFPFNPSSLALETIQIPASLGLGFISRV

Target: MyoVa-GTD-S1651E/S1652E (globular tail domain of myosin Va, phosphomimetic) (human) (UniProt Q9Y4I1)
Test: two-hybrid; pairwise validation; Y2H Gold cells co-transformed with pGBKT7 and pGADT7 vectors, 30°C, 4 days on QDO/X/A agar (four reporter genes); empty pGBKT7 as negative control

Question: For B1, which binding is on record?
Answer: Its binding is “binds”.

Question: B2 was tested. Which binding did it give?
Answer: Its binding is “binds”.

Question: Which binding does the source give for B3 here?
Answer: Its binding is “binds”.

Target: MyoVa-GTD-S1651E/S1652E (globular tail domain of myosin Va, phosphomimetic) (human) (UniProt Q9Y4I1)
Test: two-hybrid; Matchmaker Gold screen; bait pGBKT7-EE in S. cerevisiae Y2H Gold against a universal human-normalized cDNA library (pGADT7 preys); clones positive for HIS3, ADE2, AUR1-C and MEL1

Question: Which binding does the source give for B1 here?
Answer: Its binding is “binds”.

Question: With B2 as the binder, how does the binding read?
Answer: The binding was “binds”.

Question: With B3 as the binder, how does the binding read?
Answer: Its binding is “binds”.

From publication PMC6395372
